In article PMC12229022 one finds binding data, which are given here for two molecules.

Chains of the proteins cited; added tags and fusions are not shown.
UniProt Q96LD4: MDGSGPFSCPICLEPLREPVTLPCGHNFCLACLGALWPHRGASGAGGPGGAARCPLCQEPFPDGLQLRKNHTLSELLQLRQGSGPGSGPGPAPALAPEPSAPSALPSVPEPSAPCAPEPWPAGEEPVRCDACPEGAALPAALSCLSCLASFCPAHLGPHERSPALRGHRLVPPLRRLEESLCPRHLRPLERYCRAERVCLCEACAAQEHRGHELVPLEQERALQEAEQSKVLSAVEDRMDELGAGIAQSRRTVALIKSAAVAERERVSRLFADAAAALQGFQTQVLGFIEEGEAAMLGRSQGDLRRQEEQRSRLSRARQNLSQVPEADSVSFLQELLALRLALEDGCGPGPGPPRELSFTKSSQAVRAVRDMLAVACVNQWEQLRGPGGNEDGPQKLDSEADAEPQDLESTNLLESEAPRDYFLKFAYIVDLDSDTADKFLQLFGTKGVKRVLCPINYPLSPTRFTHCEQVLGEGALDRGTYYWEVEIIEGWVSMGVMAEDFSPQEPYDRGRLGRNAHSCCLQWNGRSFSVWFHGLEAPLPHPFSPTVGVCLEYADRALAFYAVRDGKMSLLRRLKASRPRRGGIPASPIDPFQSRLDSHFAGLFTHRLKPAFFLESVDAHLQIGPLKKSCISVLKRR
UniProt P49841: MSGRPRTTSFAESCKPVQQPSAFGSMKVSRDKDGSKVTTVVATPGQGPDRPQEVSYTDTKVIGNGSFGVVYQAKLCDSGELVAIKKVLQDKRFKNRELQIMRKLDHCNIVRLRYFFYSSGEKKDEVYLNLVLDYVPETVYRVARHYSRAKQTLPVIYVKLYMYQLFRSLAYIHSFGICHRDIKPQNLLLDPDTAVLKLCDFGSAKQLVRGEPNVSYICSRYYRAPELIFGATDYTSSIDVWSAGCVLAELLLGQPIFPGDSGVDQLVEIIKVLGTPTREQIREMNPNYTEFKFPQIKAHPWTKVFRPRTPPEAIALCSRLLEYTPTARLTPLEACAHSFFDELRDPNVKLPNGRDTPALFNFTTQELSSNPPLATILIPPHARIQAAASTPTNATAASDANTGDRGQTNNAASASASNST

Experiment [1] concerns the target TRIM47 immunoprecipitated for mass spectrometry (TRIM47 complex from THJ-29 T cells) (UniProt Q96LD4). Nature of the experiment: affinity purification with mass spectrometry; immunoprecipitate of the TRIM47 complex from THJ-29 T cells, trypsin digest, 5800 MALDI-TOF/TOF.
Experiment [2] shares this target. Described as above. The source holds these as a separate data set.

Like-named read-outs stand apart in the source and are kept apart here. Results are given in words; binding and its absence hold for the method and conditions named. Binding seen in cells or lysates may run through a third protein. A yes stands for co-enrichment or nearness to the bait. Other partners may have been found.

Turning to “Glycogen synthase kinase-3β (GSK-3β) (from UniProt P49841 1-420)”, the binding result in experiment [1] is “binds”.

B1: Adenosine deaminase acting on RNA (ADAR), endogenous (protein, UniProt P55265 1-1226)
chain: MNPRQGYSLSGYYTHPFQGYEHRQLRYQQPGPGSSPSSFLLKQIEFLKGQLPEAPVIGKQTPSLPPSLPGLRPRFPVLLASSTRGRQVDIRGVPRGVHLRSQGLQRGFQHPSPRGRSLPQRGVDCLSSHFQELSIYQDQEQRILKFLEELGEGKATTAHDLSGKLGTPKKEINRVLYSLAKKGKLQKEAGTPPLWKIAVSTQAWNQHSGVVRPDGHSQGAPNSDPSLEPEDRNSTSVSEDLLEPFIAVSAQAWNQHSGVVRPDSHSQGSPNSDPGLEPEDSNSTSALEDPLEFLDMAEIKEKICDYLFNVSDSSALNLAKNIGLTKARDINAVLIDMERQGDVYRQGTTPPIWHLTDKKRERMQIKRNTNSVPETAPAAIPETKRNAEFLTCNIPTSNASNNMVTTEKVENGQEPVIKLENRQEARPEPARLKPPVHYNGPSKAGYVDFENGQWATDDIPDDLNSIRAAPGEFRAIMEMPSFYSHGLPRCSPYKKLTECQLKNPISGLLEYAQFASQTCEFNMIEQSGPPHEPRFKFQVVINGREFPPAEAGSKKVAKQDAAMKAMTILLEEAKAKDSGKSEESSHYSTEKESEKTAESQTPTPSATSFFSGKSPVTTLLECMHKLGNSCEFRLLSKEGPAHEPKFQYCVAVGAQTFPSVSAPSKKVAKQMAAEEAMKALHGEATNSMASDNQPEGMISESLDNLESMMPNKVRKIGELVRYLNTNPVGGLLEYARSHGFAAEFKLVDQSGPPHEPKFVYQAKVGGRWFPAVCAHSKKQGKQEAADAALRVLIGENEKAERMGFTEVTPVTGASLRRTMLLLSRSPEAQPKTLPLTGSTFHDQIAMLSHRCFNTLTNSFQPSLLGRKILAAIIMKKDSEDMGVVVSLGTGNRCVKGDSLSLKGETVNDCHAEIISRRGFIRFLYSELMKYNSQTAKDSIFEPAKGGEKLQIKKTVSFHLYISTAPCGDGALFDKSCSDRAMESTESRHYPVFENPKQGKLRTKVENGEGTIPVESSDIVPTWDGIRLGERLRTMSCSDKILRWNVLGLQGALLTHFLQPIYLKSVTLGYLFSQGHLTRAICCRVTRDGSAFEDGLRHPFIVNHPKVGRVSIYDSKRQSGKTKETSVNWCLADGYDLEILDGTRGTVDGPRNELSRVSKKNIFLLFKKLCSFRYRRDLLRLSYGEAKKAARDYETAKNYFKKGLKDMGYGNWISKPQEEKNFYLCPV
B1: in experiment [2], the binding result is given as “binds”.
